These are yes or no findings as the source states them, for the method shown. In cells and extracts the contact can be indirect.
Biological target: α7 nicotinic acetylcholine receptor (mouse (endogenous in EOC20)) (UniProt P49582)
Assay: co-IP; α7 nAChR complex precipitated from 500 μg EOC20 cell membrane protein fraction with 5 μg anti-α7 C-20 antibody on Protein G Dynabeads; western blot with anti-Gαi, anti-Gαq, anti-Gαs and anti-Gβ; cells untreated or treated with LPS (1 μg/mL, 4 h); cells untransfected, or transfected with α7_(345-8A) or empty vector 72 h before

Protein sequences, listed by entry. Tags and fused reporters are not part of them. Residues count along the entry.
UniProt P49582, residues 23-502: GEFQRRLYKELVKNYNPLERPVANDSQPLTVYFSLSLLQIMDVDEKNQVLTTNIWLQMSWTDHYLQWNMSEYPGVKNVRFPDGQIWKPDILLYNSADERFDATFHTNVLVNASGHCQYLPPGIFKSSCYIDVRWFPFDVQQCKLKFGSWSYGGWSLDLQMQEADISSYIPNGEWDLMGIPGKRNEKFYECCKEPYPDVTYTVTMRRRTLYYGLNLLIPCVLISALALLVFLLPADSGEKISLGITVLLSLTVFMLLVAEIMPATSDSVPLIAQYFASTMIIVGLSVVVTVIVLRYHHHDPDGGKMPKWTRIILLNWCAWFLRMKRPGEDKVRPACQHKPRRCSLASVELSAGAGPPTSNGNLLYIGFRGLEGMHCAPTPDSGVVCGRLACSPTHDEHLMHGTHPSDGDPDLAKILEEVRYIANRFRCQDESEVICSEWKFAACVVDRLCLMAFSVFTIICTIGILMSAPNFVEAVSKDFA
UniProt P63094: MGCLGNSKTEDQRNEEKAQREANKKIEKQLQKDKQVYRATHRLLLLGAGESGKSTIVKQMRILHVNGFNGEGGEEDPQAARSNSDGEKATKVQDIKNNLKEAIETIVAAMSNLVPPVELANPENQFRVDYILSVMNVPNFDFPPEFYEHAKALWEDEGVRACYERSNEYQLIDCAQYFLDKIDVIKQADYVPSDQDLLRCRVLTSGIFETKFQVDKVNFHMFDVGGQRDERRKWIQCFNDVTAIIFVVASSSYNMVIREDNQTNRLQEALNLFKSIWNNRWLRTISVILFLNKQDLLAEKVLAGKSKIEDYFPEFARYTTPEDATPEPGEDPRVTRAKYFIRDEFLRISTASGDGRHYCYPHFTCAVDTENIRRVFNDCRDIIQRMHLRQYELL

- binding: no binding
Substance: heterotrimeric G protein subunit Gαs (from UniProt P63094 1-394)

Source: publication PMC5586346
